One molecule from US20240269242A1 can be followed below.

Chains of the proteins cited; added tags and fusions are not shown. Residues count along the entry.
UniProt Q9BYF1, residues 18-805: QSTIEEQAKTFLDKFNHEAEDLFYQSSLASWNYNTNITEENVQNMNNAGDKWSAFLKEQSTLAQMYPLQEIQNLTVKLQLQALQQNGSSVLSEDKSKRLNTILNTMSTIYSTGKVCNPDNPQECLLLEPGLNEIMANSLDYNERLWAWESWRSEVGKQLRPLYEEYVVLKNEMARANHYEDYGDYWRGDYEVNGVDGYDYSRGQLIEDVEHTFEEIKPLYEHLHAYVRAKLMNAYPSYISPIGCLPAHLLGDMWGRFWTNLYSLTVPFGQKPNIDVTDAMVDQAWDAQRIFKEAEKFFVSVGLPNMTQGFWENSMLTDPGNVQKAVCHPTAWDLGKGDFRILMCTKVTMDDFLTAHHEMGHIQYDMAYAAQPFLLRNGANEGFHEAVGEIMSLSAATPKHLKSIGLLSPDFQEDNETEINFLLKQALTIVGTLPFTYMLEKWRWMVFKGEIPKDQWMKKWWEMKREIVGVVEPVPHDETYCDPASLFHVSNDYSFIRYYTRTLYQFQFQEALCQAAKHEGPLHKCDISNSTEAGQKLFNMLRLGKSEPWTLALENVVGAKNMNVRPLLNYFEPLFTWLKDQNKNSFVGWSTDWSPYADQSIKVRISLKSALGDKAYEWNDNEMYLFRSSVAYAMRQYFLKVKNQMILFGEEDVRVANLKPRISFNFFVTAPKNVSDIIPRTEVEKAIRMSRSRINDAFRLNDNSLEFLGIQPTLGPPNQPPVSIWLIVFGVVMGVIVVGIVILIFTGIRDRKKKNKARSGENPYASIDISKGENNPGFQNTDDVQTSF

For test [1], the target named is ACE2 in lysates from HEK293T cells transfected with ACE2-expressing plasmids (UniProt Q9BYF1). The test is described as follows: competition ELISA: soluble peptide against plate-bound SP-A for ACE2 lysate. (In general: In an ELISA, binding on a coated surface is turned into a signal by an enzyme label.)
For test [2] the target is unchanged. As to the kind of experiment: competition ELISA: soluble competitor against plate-bound SP-A for ACE2 lysate.

No constants are given. Whether binding was seen depends on the method and setting. Some results given as binding are weak or reduced against the parent protein; the word gives no strength.

Take PAGRGKEKCVEMYTDGQWND [SP-A 223K containing 20-mer peptide]: the binding result in test [1] and in test [2] was “binds” throughout.
